PubChem BioAssay AID504774 – Drosophila RNAi Screening Center – 2011

Test: 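Fly genes whose loss alters survival after alkylation damage to DNA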 (primary screen)
Cell system: Drosophila Kc167 cells
Reagents: long dsRNA against Drosophila genes, about 0.25 µg dsRNA per well
Duration: about 6 days: 3 days knock-down, then 3 days with or without MMS
Treatment: methyl methanesulphonate 0.004% (w/v) for 3 days after knock-down
Measurement: 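ATP-dependent luminescence as a measure of live cells in MMS-exposed wells, quantile normalised within each plate, with replicate values also given as a mean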
Reading the numbers: mean viability with MMS and viability with MMS: higher = more surviving cells after MMS
The screen tested about 23,000 reagents; shown is an unselected part of those with a known target gene and a result. 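Values are quantile-normalised luminescence on an arbitrary scale; higher means more cells surviving MMS.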 Names joined by + are all predicted targets of the reagent.

no.	target	amplicon	mean viability with MMS	viability with MMS, replicate 1	viability with MMS, replicate 2
1	CG6937	DRSC16140	3.45e6	3.90e6	3.88e6
2	CG11929	DRSC00339	3.47e6	3.97e6	3.90e6
3	CG33796	DRSC09417	3.49e6	4.02e6	3.91e6
4	CG8010	DRSC20072	3.70e6	4.21e6	4.23e6
5	Arr2 (Arrestin 2)	DRSC09670	3.50e6	3.91e6	4.03e6
6	CG3492	DRSC04373	3.67e6	4.21e6	3.78e6
7	dsh (dishevelled)	DRSC19803	3.51e6	3.94e6	4.01e6
8	Argl + CG9515	DRSC03243	3.59e6	4.21e6	3.97e6
9	Argl + CG9515	DRSC03245	3.64e6	4.10e6	4.14e6
10	BthD (BthD selenoprotein)	DRSC19395	3.58e6	3.87e6	4.22e6
11	ACXD (Adenylyl cyclase X D)	DRSC07843	3.45e6	3.95e6	3.90e6
12	ND-B22 (NADH dehydrogenase (ubiquinone) B22 subunit)	DRSC03193	3.75e6	4.17e6	4.21e6
13	CCKLR-17D3 (Cholecystokinin-like receptor at 17D3)	DRSC20015	3.85e6	4.25e6	4.37e6
14	CCKLR-17D3 (Cholecystokinin-like receptor at 17D3)	DRSC20017	3.49e6	4.00e6	3.95e6
15	CG13954	DRSC06442	3.54e6	4.03e6	4.00e6
16	CG4259	DRSC00645	3.54e6	4.14e6	3.89e6
17	pygo (pygopus)	DRSC14322	3.07e6	3.71e6	3.66e6
18	slv (saliva)	DRSC07685	3.66e6	4.11e6	4.10e6
19	CSN4 (COP9 signalosome subunit 4)	DRSC07350	3.38e6	3.87e6	3.80e6
20	Ns3 (Nucleostemin 3)	DRSC18607	3.52e6	3.93e6	4.05e6
21	CG15506	DRSC15047	3.47e6	3.91e6	3.93e6
22	spel1 (spellchecker1)	DRSC03617	3.59e6	4.01e6	4.14e6
23	CG1371	DRSC06409	3.70e6	4.19e6	4.20e6
24	Nup205 (Nucleoporin 205kD)	DRSC19432	3.18e6	3.57e6	3.58e6
25	Rpn10 (Regulatory particle non-ATPase 10)	DRSC11876	3.19e6	3.63e6	3.62e6
26	CG33223	DRSC17572	3.49e6	3.96e6	3.97e6
27	CG7791	DRSC04891	3.41e6	3.98e6	3.79e6
28	Idgf3 (Imaginal disc growth factor 3)	DRSC03351	3.62e6	4.05e6	4.20e6

Single entries from the entries so far:
Arr2 (Arrestin 2) [DRSC09670], mean viability with MMS = 3.50e6
Under “mean viability with MMS”, BthD (BthD selenoprotein) [DRSC19395] reads 3.58e6
Under “viability with MMS, replicate 1”, ND-B22 (NADH dehydrogenase (ubiquinone) B22 subunit) [DRSC03193] shows 4.17e6
